Reference: patent publication US9487570B2, “Glucagon like peptide analogs, composition, and method of use” (BETTA PHARMACEUTICALS CO., LTD, priority 2010, dated 2016)
For at least one compound, name, drawing or mass did not settle the structure.

Test system: cloned human GLP-1 receptor
Assay: cAMP formation in a cell line expressing the cloned human GLP-1 receptor
Details: 2 h at 37 °C, cAMP by scintillation proximity assay; read-out: Cell based cAMP ED50

CCCCCCCCCCCCCCCC(=O)N[C@@H](CCC(=O)NCCCC[C@H](NC(=O)[C@H](C)NC(=O)[C@H](C)NC(=O)[C@H](CCC(N)=O)NC(=O)CNC(=O)[C@H](CCC(=O)O)NC(=O)[C@H](CC(C)C)NC(=O)[C@H](Cc1ccc(O)cc1)NC(=O)[C@H](CO)NC(=O)[C@H](CO)NC(=O)[C@@H](NC(=O)[C@H](CC(=O)O)NC(=O)[C@H](CO)NC(=O)[C@@H](NC(=O)[C@H](Cc1ccccc1)NC(=O)[C@@H](NC(=O)CNC(=O)[C@@H](/C=C/[C@H](C)NC(=O)[C@@H](N)Cc1c[nH]cn1)CCC(=O)O)[C@@H](C)O)[C@@H](C)O)C(C)C)C(=O)N[C@@H](CCC(=O)O)C(=O)N[C@@H](Cc1ccccc1)C(=O)N[C@H](C(=O)N[C@@H](C)C(=O)N[C@@H](Cc1c[nH]c2ccccc12)C(=O)N[C@@H](CC(C)C)C(=O)N[C@H](C(=O)N[C@@H](CCCNC(=N)N)C(=O)NCC(=O)N[C@@H](CCCNC(=N)N)C(=O)NCC(=O)O)C(C)C)[C@@H](C)CC)C(=O)O [N-ε^26-[γ-L-glutamyl(N-α-hexadecanoyl)]-[Q-linker-a8-9,Arg34]GLP-1-(7-37)-peptide]
EC50: 0.135 nM
